# Library screen at single concentrations

Amino acid sequences for entries named in this document (tags omitted). Residues count along the entry.
UniProt P9WFT3, whole entry: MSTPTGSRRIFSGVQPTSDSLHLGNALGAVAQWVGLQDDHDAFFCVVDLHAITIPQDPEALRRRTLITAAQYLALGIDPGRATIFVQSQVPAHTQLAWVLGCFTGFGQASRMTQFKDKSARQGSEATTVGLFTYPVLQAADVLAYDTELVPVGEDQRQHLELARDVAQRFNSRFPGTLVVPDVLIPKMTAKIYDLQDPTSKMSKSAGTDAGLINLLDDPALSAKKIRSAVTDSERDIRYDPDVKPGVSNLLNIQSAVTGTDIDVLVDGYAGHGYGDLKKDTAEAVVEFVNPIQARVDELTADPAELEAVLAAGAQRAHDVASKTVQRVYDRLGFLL
UniProt Q4DA54, 1-478: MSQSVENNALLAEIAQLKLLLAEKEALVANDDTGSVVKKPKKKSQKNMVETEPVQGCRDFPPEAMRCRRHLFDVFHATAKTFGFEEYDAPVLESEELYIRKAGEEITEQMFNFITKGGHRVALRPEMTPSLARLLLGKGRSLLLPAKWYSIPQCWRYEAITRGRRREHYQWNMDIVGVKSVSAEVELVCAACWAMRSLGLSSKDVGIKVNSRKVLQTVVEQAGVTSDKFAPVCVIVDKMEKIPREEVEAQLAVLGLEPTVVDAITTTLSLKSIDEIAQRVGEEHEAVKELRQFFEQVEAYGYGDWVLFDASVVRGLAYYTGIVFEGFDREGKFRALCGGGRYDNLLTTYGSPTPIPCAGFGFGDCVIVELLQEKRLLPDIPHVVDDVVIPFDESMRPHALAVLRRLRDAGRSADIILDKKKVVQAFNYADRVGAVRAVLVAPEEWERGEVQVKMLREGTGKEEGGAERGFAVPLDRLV
UniProt Q8IDJ8, 1-583: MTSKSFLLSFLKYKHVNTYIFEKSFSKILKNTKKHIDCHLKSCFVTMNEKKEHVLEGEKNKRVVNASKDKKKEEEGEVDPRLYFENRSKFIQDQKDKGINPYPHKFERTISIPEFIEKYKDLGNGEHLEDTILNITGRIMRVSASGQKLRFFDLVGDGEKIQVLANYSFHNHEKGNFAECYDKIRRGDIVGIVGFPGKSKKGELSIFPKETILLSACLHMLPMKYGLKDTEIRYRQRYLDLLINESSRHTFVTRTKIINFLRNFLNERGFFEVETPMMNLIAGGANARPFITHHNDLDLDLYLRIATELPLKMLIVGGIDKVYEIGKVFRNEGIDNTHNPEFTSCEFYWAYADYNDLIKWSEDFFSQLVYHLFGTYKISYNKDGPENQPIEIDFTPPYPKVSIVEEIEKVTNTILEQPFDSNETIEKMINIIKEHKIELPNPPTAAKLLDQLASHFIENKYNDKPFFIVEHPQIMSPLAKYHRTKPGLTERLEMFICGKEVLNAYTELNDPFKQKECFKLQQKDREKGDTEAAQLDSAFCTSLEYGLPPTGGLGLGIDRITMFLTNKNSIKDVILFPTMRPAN
UniProt P9WNZ1, whole entry: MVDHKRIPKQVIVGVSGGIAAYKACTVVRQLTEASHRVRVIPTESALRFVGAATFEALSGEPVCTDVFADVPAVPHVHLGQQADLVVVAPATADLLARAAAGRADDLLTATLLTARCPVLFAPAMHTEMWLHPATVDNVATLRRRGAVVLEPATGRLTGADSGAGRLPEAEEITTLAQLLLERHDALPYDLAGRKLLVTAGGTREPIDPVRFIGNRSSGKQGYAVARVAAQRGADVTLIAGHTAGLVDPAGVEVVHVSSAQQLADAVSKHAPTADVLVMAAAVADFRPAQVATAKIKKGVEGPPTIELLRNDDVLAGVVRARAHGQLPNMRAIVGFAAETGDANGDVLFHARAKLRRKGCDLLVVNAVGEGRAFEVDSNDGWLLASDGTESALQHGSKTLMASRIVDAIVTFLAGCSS
UniProt I6X8D2, whole entry: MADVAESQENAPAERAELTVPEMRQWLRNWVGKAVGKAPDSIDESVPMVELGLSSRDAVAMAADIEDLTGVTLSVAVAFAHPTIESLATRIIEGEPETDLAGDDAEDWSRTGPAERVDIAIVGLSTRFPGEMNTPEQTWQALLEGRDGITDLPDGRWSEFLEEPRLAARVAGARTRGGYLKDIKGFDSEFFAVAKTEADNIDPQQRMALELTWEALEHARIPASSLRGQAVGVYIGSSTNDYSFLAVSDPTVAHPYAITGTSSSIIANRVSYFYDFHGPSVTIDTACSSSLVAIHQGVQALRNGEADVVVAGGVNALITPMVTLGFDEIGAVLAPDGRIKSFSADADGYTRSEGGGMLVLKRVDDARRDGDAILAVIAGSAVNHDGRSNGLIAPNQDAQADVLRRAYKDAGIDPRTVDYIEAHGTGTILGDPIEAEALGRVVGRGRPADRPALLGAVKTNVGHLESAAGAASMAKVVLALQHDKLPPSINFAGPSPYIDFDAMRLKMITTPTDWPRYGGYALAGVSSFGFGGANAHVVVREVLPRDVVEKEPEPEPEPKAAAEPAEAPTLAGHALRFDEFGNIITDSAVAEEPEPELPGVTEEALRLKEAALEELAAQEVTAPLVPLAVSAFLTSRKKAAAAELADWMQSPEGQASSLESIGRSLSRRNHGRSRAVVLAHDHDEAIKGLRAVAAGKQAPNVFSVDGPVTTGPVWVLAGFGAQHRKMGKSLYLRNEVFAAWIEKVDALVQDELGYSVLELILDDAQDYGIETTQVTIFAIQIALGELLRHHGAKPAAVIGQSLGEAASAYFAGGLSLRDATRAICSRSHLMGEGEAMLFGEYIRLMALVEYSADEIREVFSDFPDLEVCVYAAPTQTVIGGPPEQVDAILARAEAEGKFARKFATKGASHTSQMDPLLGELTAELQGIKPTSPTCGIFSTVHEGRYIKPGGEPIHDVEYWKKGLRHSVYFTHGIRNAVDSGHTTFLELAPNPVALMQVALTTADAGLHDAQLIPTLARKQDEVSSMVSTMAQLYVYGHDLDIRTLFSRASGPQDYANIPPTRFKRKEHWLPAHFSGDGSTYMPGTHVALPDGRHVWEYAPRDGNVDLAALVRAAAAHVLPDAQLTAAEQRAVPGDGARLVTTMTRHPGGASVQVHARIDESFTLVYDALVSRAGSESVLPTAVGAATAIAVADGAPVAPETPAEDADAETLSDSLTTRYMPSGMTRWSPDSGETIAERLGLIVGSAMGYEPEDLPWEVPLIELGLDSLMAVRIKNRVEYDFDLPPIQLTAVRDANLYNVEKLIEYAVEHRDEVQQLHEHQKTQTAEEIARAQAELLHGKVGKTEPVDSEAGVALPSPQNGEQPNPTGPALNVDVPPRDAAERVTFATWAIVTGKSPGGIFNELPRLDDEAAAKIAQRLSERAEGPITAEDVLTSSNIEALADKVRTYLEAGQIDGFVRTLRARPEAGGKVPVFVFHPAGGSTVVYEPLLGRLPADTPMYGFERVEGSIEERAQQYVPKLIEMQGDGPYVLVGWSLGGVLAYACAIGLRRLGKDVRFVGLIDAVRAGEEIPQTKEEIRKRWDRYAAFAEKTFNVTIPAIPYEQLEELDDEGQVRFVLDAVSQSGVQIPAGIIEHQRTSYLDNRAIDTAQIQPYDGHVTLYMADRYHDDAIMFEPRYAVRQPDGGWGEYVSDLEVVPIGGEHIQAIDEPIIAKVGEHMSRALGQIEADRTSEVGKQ

Data taken from ChEMBL document CHEMBL3988442, “University of Dundee, Small-Polar-MMV Screening Library” (2021).

Values are the deposited “Percent Effect”, in %.
The record does not define 0% and 100%; most values in the screen are far below 50% and negative numbers occur (in some assays of this library far below -100).
The compounds are a random part of those screened.

A: 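Tryptophan-tRNA ligase, Mycobacterium tuberculosis (UniProt P9WFT3). Enzyme assay of tryptophanyl-tRNA synthetase; the read-out is not stated. Concentration: 10 µM. Direction is not recorded; retested compounds ran higher, which suggests that high means inhibition. About 65,000 compounds were tested under these conditions; 0.098% (about 64) showed 50% or more at least once.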
B: 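Enzyme assay of histidyl-tRNA synthetase; the read-out is not stated. Target: Histidine-tRNA ligase, Trypanosoma cruzi CL Brener (UniProt Q4DA54). Tested at 30 µM. The record gives no direction; compounds that gave an IC50 in retests scored well above the rest, so higher reads as stronger inhibition. Size under these conditions: about 69,000 compounds, about 31 of them at 50% or above in at least one test.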
C: 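Lysine-tRNA ligase, Plasmodium falciparum 3D7 (UniProt Q8IDJ8). Enzyme assay of the cytosolic lysyl-tRNA synthetase in 384-well plates, read by luminescence. Compounds at 30 µM. Direction is inferred from only a few compounds that gave an IC50; most scored high, so higher reads as stronger inhibition. Size under these conditions: about 69,000 compounds, about 49 of them at 50% or above in at least one test.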
D: 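Enzyme assay of CoaBC with a phosphate dye (Biomol Green) read at 650 nm. Target: Coenzyme A biosynthesis protein CoaBC, Mycobacterium tuberculosis (UniProt P9WNZ1). Concentration: 30 µM. Direction is inferred from only a few compounds that gave an IC50; most scored high, so higher reads as stronger inhibition. Most strong results did not repeat in a second test. Of about 67,000 compounds tested this way, about 40 (0.06%) reached 50% or more in at least one test.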
E: 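Polyketide synthase Pks13, Mycobacterium tuberculosis (UniProt I6X8D2). Enzyme assay of the thioesterase domain of polyketide synthase 13; the read-out is not stated. Compounds at 30 µM. Higher reads as stronger inhibition (inferred from which compounds were picked for retests). About 67,000 compounds were tested under these conditions; 0.46% (about 300) showed 50% or more at least once.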
F: 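Cell assay of Leishmania donovani living inside macrophages; the read-out is not stated. Concentration: 30 µM. The record gives no direction; compounds that gave an IC50 in retests scored well above the rest, so higher reads as stronger inhibition. Of about 69,000 compounds tested this way, about 1,000 (1.5%) reached 50% or more in at least one test.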

{"structure": "COCCN1CCC(CNC(=O)C2(S(C)(=O)=O)CCCC2)CC1", "A": -5.932, "B": 4.202, "C": 1.537, "D": 4.435, "E": -3.839, "F": 19.2}
{"structure": "CS(=O)(=O)Cc1ccc(C(=O)Nc2ccc3c(c2)C(=O)NC3)cc1", "A": 2.33, "B": 7.328, "C": 1.497, "D": -0.1267, "E": -20.63, "F": 6.259}
{"structure": "Cn1ccnc1CN1CC[C@@H](NS(C)(=O)=O)[C@@H]1Cc1cccnc1", "A": -3.4, "B": 3.867, "C": 0.6171, "D": 8.226, "E": -25.84, "F": -45.41}
{"structure": "Cc1nc(C(C)C)ncc1C(=O)N1CCCC(N2CCCC2)C1", "stereo": "stereo not shown", "A": 3.047, "B": -3.879, "C": 2.874, "D": -4.689, "E": -31.55, "F": 24.24}
{"structure": "Cc1nc(CN2CCO[C@H]3[C@@H](Oc4ccccn4)CC[C@@H]32)cs1", "A": -6.784, "B": 2.4, "C": 8.536, "D": 5.732, "E": -5.751}
{"structure": "CCC[C@H]1CN(S(=O)(=O)c2ccccc2)C[C@@H]1N", "A": -4.897, "B": 11.49, "C": -0.6859, "D": -1.353, "E": -4.45, "F": 7.772}
{"structure": "O=C(C[S+]([O-])Cc1ccc(F)cc1Cl)N1CCc2sccc2C1", "stereo": "stereo not shown", "A": 9.812, "B": 6.878, "C": 8.785, "D": -2.037, "E": -12.77, "F": 13.12}
{"structure": "O=C(CCN1CCCC1c1cccc(F)c1)N1CCc2sccc2C1", "stereo": "stereo not shown", "A": -7.91, "B": 13.08, "C": 1.023, "D": 4.54, "E": -2.941, "F": -8.958}
{"structure": "Cc1ccsc1CN(C)C(=O)C1CCCN(C(N)=O)C1", "stereo": "stereo not shown", "A": 1.262, "B": 4.902, "C": 4.183, "D": 3.19, "E": -1.089, "F": -10.62}
{"structure": "CC(c1ccc(Cl)cc1)N1CCN(CCCS(N)(=O)=O)CC1", "stereo": "stereo not shown", "A": -2.897, "B": 3.093, "C": -2.893, "D": 0.489, "E": -8.643, "F": 5.758}
{"structure": "C[C@@H]1CN(CC(C)(C)N2CCOCC2)CC[C@@]1(O)C1CCOCC1", "A": 9.372, "B": 1.064, "C": -6.166, "D": 0.8032, "E": -24.33, "F": 20.06}
{"structure": "[H][C@]12CN(c3ncc(F)cn3)C[C@@]1([H])S(=O)(=O)CC[C@@H]2C(=O)N(C)C", "F": 29.94}
{"structure": "CN(C)C(=O)CN1C(=O)C[C@@H]2[C@@H]1CCN2Cc1cccc(C#N)c1", "A": 1.095, "B": 1.961, "C": -1.567, "D": 2.25}
{"structure": "CN(C)C[C@]12COC[C@H]1CN(C(=O)CCc1ccccc1)C2", "A": 4.185, "B": -75.21, "C": 3.347, "D": -14.29, "E": -9.269}
{"structure": "COc1ncccc1C(=O)N1CCC2(CC1)CC(OC)CO2.O=C(O)C(F)(F)F", "stereo": "stereo not shown", "F": 56.73}
{"structure": "Cc1ccoc1CNC(C)c1nnc2n1CCCC2", "stereo": "stereo not shown", "A": 9.082, "B": -1.087, "C": -3.735, "D": 4.637, "E": 8.101, "F": -10.49}
{"structure": "O=C(CC1CC1)N[C@@H]1CN(Cc2ccncc2)C[C@@H]2CCCO[C@@H]21", "A": -3.043, "B": 1.622, "C": -0.3085, "D": -1.65}
{"structure": "CC(C(N)=O)N(C)CCCc1cc(-c2ccccc2)no1", "stereo": "stereo not shown", "A": -4.179, "B": 3.448, "C": 0.3986, "D": -0.6745, "E": -7.42, "F": 19.42}

Once more, the final 2:

With O=C(CC1CC1)N[C@@H]1CN(Cc2ccncc2)C[C@@H]2CCCO[C@@H]21 the screen gave A: -3.043%; B: 1.622%; C: -0.3085%; D: -1.65%.
With CC(C(N)=O)N(C)CCCc1cc(-c2ccccc2)no1 (stereo not shown) the screen gave A: -4.179%; B: 3.448%; C: 0.3986%; D: -0.6745%; E: -7.42%; F: 19.42%.